# Literature values, collected in patent US20100260755A1, “IBUDILAST AND IMMUNOMODULATORS COMBINATION” (MediciNova, Inc., priority 2009, published 2010).
# At least one structure is not confirmed: it was looked up by name or label, or the drawing left a doubt.
# Legend:
# [1] = test system: myelin oligodendrocyte glycoprotein (MOG)-specific T cells; conditions: reactivated with MOG in the presence of microglia
structure (smiles),measurement,setting,value
CC(C)C(=O)c1c(C(C)C)nn2ccccc12 [ibudilast],"production of IL-10 and neurotrophic factors NGF, GDNF, NT-4",activated microglia,enhanced
same,"production of nitric oxide (NO), reactive oxygen species, IL-1β, IL-6 and TNF-α",activated microglia,suppressed
same,interferon-γ production by MOG-specific T cells,[1],suppressed
same,microglial IL-12 production,microglia,significantly suppressed
